Results: patent publication US20260256792A1, “TREATMENT OF CHRONIC SPONTANEOUS URTICARIA BY ADMINISTERING (R)-2-[3-[4-AMINO-3-(2-FLUORO-4-PHENOXY-PHENYL)PYRAZOLO[3,4-D]PYRIMIDIN-1-YL]PIPERIDINE-1-CARBONYL]-4-METHYL-4-[4-(OXETAN-3-YL)PIPERAZIN-1-YL]PENT-2-ENENITRILE” (priority 2023, published 2026)
Further values from the same series stand in other lists.

System: moderate-to-severe chronic spontaneous urticaria (CSU)
Experiment: Phase 2 CSU study: itch severity score over 7 days (ISS7)
Type: in vivo, human
Conditions: Omalizumab-naïve population
Description: The study comprises a 12 week, randomized, double-blind, placebo-controlled, multi-center, dose-ranging efficacy and safety phase, followed by a 40 week open label extension (OLE) phase (see FIG. 1). The study consists of three phases and an optional OLE phase. […] Clinically, CSU is characterized by the spontaneous and recurrent appearance of pruritic hives. The proposed primary endpoints were the UAS7 at Week 12 in EU and EU reference countries and the ISS7 in the US. Regardless of where a participant was from, all assessments were the same. The UAS7 score is a composite score containing both the HSS7 and the ISS7. This allowed a global assessment of the two key components of urticaria: hives and itch. […] The UAS is a validated PRO measure. […] The daily UAS scores range from 0 to 6 point/day. […] Patients were to complete the UAS using the e-diary. […] The following secondary endpoints were to be analyzed using the same approach as for the primary endpoint: • Change from baseline in UAS7 at Week 4 • Change from baseline in UAS7 at Week 12 (for US and US reference countries) • Change from baseline in ISS7 at Week 12 (except US and US reference countries) • Change from baseline in HSS7 at Week 12

[1] = 400 mg BID, Age group (years) ≥65
[2] = 400 mg BID, Baseline BMI (kg/m^2) <25
[3] = 400 mg BID, Baseline BMI (kg/m^2) >25-<30
[4] = 400 mg BID, Baseline BMI (kg/m^2) ≥30
[5] = 400 mg BID, Baseline weight (kg) <60
[6] = 400 mg BID, Baseline weight (kg) <72.9 (Median)
[7] = 400 mg BID, Baseline weight (kg) ≥60-<90
[8] = 400 mg BID, Baseline weight (kg) ≥72.9 (Median)
[9] = 400 mg BID, Baseline weight (kg) ≥90
[10] = 400 mg QPM, Age group (years) ≥65
[11] = 400 mg QPM, Baseline BMI (kg/m^2) <25
[12] = 400 mg QPM, Baseline BMI (kg/m^2) >25-<30
[13] = 400 mg QPM, Baseline BMI (kg/m^2) ≥30
[14] = 400 mg QPM, Baseline weight (kg) <60
[15] = 400 mg QPM, Baseline weight (kg) <72.9 (Median)
[16] = 400 mg QPM, Baseline weight (kg) ≥60-<90
[17] = 400 mg QPM, Baseline weight (kg) ≥72.9 (Median)
[18] = 400 mg QPM, Baseline weight (kg) ≥90
[19] = 400 mg TID, Baseline BMI (kg/m^2) <25
[20] = 400 mg TID, Baseline BMI (kg/m^2) >25-<30
[21] = 400 mg TID, Baseline BMI (kg/m^2) ≥30
[22] = 400 mg TID, Baseline weight (kg) <60
[23] = 400 mg TID, Baseline weight (kg) <72.9 (Median)
[24] = 400 mg TID, Baseline weight (kg) ≥60-<90

Structure (SMILES): CC(C)(C=C(C#N)C(=O)N1CCC[C@@H](n2nc(-c3ccc(Oc4ccccc4)cc3F)c3c(N)ncnc32)C1)N1CCN(C2COC2)CC1 [rilzabrutinib, (R)-2-[3-[4-amino-3-(2-fluoro-4-phenoxy-phenyl)pyrazolo[3,4-d]pyrimidin-1-yl]piperidine-1-carbonyl]-4-methyl-4-[4-(oxetan-3-yl)piperazin-1-yl]pent-2-enenitrile]
- Change from Baseline in ISS7 at Week 12, LS Mean [1]: −13.32
- Change from Baseline in ISS7 at Week 12, LS Mean Diff vs. placebo [1]: −14.22
- Change from Baseline in ISS7 at Week 12, LS Mean Diff vs. placebo (400 mg BID, Baseline BHRA BHRA−): −1.10
- Change from Baseline in ISS7 at Week 12, LS Mean [2]: −7.22
- Change from Baseline in ISS7 at Week 12, LS Mean Diff vs. placebo [2]: −2.81
- Change from Baseline in ISS7 at Week 12, Mean [2]: −7.34
- Change from Baseline in ISS7 at Week 12, LS Mean [3]: −6.90
- Change from Baseline in ISS7 at Week 12, LS Mean Diff vs. placebo [3]: −1.35
- Change from Baseline in ISS7 at Week 12, Mean [3]: −7.10
- Change from Baseline in ISS7 at Week 12, LS Mean [4]: −8.24
- Change from Baseline in ISS7 at Week 12, Mean [4]: −8.00
- Change from Baseline in ISS7 at Week 12, LS Mean [5]: −5.70
- Change from Baseline in ISS7 at Week 12, LS Mean Diff vs. placebo [5]: −1.37
- Change from Baseline in ISS7 at Week 12, Mean [5]: −5.29
- Change from Baseline in ISS7 at Week 12, LS Mean [6]: −6.60
- Change from Baseline in ISS7 at Week 12, LS Mean Diff vs. placebo [6]: −0.84
- Change from Baseline in ISS7 at Week 12, Mean [6]: −6.55
- Change from Baseline in ISS7 at Week 12, LS Mean [7]: −7.08
- Change from Baseline in ISS7 at Week 12, LS Mean Diff vs. placebo [7]: −1.01
- Change from Baseline in ISS7 at Week 12, Mean [7]: −7.71
- Change from Baseline in ISS7 at Week 12, LS Mean [8]: −8.28
- Change from Baseline in ISS7 at Week 12, LS Mean Diff vs. placebo [8]: −3.62
- Change from Baseline in ISS7 at Week 12, Mean [8]: −8.75
- Change from Baseline in ISS7 at Week 12, LS Mean [9]: −10.60
- Change from Baseline in ISS7 at Week 12, LS Mean Diff vs. placebo [9]: −5.46
- Change from Baseline in ISS7 at Week 12, Mean [9]: −10.67
- Change from Baseline in ISS7 at Week 12, LS Mean (400 mg BID, Gender Female): −6.92
- Change from Baseline in ISS7 at Week 12, LS Mean Diff vs. placebo (400 mg BID, Gender Female): −0.62
- Change from Baseline in ISS7 at Week 12, LS Mean (400 mg BID, Gender Male): −8.42
- Change from Baseline in ISS7 at Week 12, LS Mean Diff vs. placebo (400 mg BID, Gender Male): −4.88
- Change from Baseline in ISS7 at Week 12, LS Mean [10]: 2.48
- Change from Baseline in ISS7 at Week 12, LS Mean Diff vs. placebo [10]: 1.58
- Change from Baseline in ISS7 at Week 12, LS Mean Diff vs. placebo (400 mg QPM, Baseline BHRA BHRA−): 0.83
- Change from Baseline in ISS7 at Week 12, LS Mean [11]: −3.64
- Change from Baseline in ISS7 at Week 12, LS Mean Diff vs. placebo [11]: 0.77
- Change from Baseline in ISS7 at Week 12, Mean [11]: −4.18
- Change from Baseline in ISS7 at Week 12, LS Mean [12]: −3.43
- Change from Baseline in ISS7 at Week 12, LS Mean Diff vs. placebo [12]: 2.13
- Change from Baseline in ISS7 at Week 12, Mean [12]: −5.60
- Change from Baseline in ISS7 at Week 12, LS Mean [13]: −7.49
- Change from Baseline in ISS7 at Week 12, Mean [13]: −8.09
- Change from Baseline in ISS7 at Week 12, LS Mean [14]: −4.12
- Change from Baseline in ISS7 at Week 12, LS Mean Diff vs. placebo [14]: 0.22
- Change from Baseline in ISS7 at Week 12, Mean [14]: −4.71
- Change from Baseline in ISS7 at Week 12, LS Mean [15]: −3.98
- Change from Baseline in ISS7 at Week 12, LS Mean Diff vs. placebo [15]: 1.77
- Change from Baseline in ISS7 at Week 12, Mean [15]: −4.51
- Change from Baseline in ISS7 at Week 12, LS Mean [16]: −4.36
- Change from Baseline in ISS7 at Week 12, LS Mean Diff vs. placebo [16]: 1.71
- Change from Baseline in ISS7 at Week 12, Mean [16]: −5.28
- Change from Baseline in ISS7 at Week 12, LS Mean [17]: −5.86
- Change from Baseline in ISS7 at Week 12, LS Mean Diff vs. placebo [17]: −1.21
- Change from Baseline in ISS7 at Week 12, Mean [17]: −7.22
- Change from Baseline in ISS7 at Week 12, LS Mean [18]: −8.76
- Change from Baseline in ISS7 at Week 12, LS Mean Diff vs. placebo [18]: −3.62
- Change from Baseline in ISS7 at Week 12, LS Mean (400 mg QPM, Gender Female): 4.77
- Change from Baseline in ISS7 at Week 12, LS Mean Diff vs. placebo (400 mg QPM, Gender Female): 1.52
- Change from Baseline in ISS7 at Week 12, LS Mean (400 mg QPM, Gender Male): −4.68
- Change from Baseline in ISS7 at Week 12, LS Mean Diff vs. placebo (400 mg QPM, Gender Male): −1.14
- Change from Baseline in ISS7 at Week 12, LS Mean (400 mg TID, Age group (years) ≥65): −12.67
- Change from Baseline in ISS7 at Week 12, LS Mean Diff vs. placebo (400 mg TID, Baseline BHRA BHRA−): −3.33
- Change from Baseline in ISS7 at Week 12, LS Mean [19]: −9.17
- Change from Baseline in ISS7 at Week 12, LS Mean Diff vs. placebo [19]: −4.75
- Change from Baseline in ISS7 at Week 12, Mean [19]: −9.13
- Change from Baseline in ISS7 at Week 12, LS Mean [20]: −8.43
- Change from Baseline in ISS7 at Week 12, LS Mean Diff vs. placebo [20]: −2.88
- Change from Baseline in ISS7 at Week 12, Mean [20]: −10.74
- Change from Baseline in ISS7 at Week 12, LS Mean [21]: −10.85
- Change from Baseline in ISS7 at Week 12, Mean [21]: −11.88
- Change from Baseline in ISS7 at Week 12, LS Mean Diff vs. placebo [22]: 6.74
- Change from Baseline in ISS7 at Week 12, Mean [22]: −11.17
- Change from Baseline in ISS7 at Week 12, LS Mean [23]: −9.97
- Change from Baseline in ISS7 at Week 12, LS Mean Diff vs. placebo [23]: −4.22
- Change from Baseline in ISS7 at Week 12, Mean [23]: −11.22
- Change from Baseline in ISS7 at Week 12, LS Mean [24]: −8.41
- Change from Baseline in ISS7 at Week 12, LS Mean Diff vs. placebo [24]: −2.35
- Change from Baseline in ISS7 at Week 12, Mean [24]: −9.91
- Change from Baseline in ISS7 at Week 12, LS Mean (400 mg TID, Baseline weight (kg) ≥72.9 (Median)): −8.80
